The list shows a part of the results.
B1: il2ra_site1_1z92_sap_12_mot_HHH_b1_07624_af2_000000183_0001_1_21_H_._HHH_b2_00546_0001_0000500044_0000001_0_0001_af2pred_dldesign_0_af2pred (protein)
chain: DEEVAKILELLKTDKEKALEALIEYLRSLGSPAEIYLADYLERLKKEDPERAEKYAHKVLEMALK
B2: il2ra_site1_2b5i_sap_18_mot_0921d739bb7547bb6fa23329820ad62a_0001_000000012_0001_54_65_H_._HHH_b1_07747_af2_0001_0000200003_0000001_0_0001_af2pred_dldesign_0_af … (protein)
chain: DLEAVAARLRKEDPEAYRLLRLARKALRKKGVPDEEIERLFRELLREAPSPRAAVEALAEFALEL
B3: il2ra_site2_3nfp_normal_mot_HHH_b1_01086_000000225_0001_20_36_H_._HHH_b2_03301_0001_0000100007_0000001_0 (protein)
chain: SSSSDEEERVRELLEEARKLIEEGNPEEAEKVLQEATQLIYELGDFELFAELVDLSFELFSSSSS
B4: il2ra_site2_3nfp_normal_mot_HHH_b1_03851_000000147_0001_21_38_H_._HHH_b2_07765_af2_0001_0000100002_0000001_0 (protein)
chain: SSSSSSDELEELIREIERAEEEGDRNEVAELLLELAKLAAELNDEEAAEFVLKVYAELRSSSSSS
B5: il2ra_site1_2b5i_normal_mot_HHH_b1_01495_af2_000000272_0001_42_56_H_._HHH_b2_05717_0001_0000100005_0000001_0 (protein)
chain: SSSSDEQEELQELFLEASRLIRNGNPEEARRVLEEAEQLAREAGDEKALKDLEFMLERLNSSSSS
B6: il2ra_site2_2erj_sap_31_mot_HHH_b1_00941_000000051_0001_45_58_H_._HHH_b1_02781_0001_0000200010_0000001_0_0001 (protein)
chain: SSSSDEELHELFELLNELIRLLEEGDDEEFQKLLEELKRLAEELGSRTLKEMLELLERQFKSSSS
B7: il2ra_site1_3nfp_normal_mot_cc4219192d8ccd35c40e7b68f9a57604_0001_af2_000000124_0001_16_32_H_._HHH_b1_07852_af2_0001_0000300041_0000001_0 (protein)
chain: SSSSSNTRWLEELAERAHERNDRLQLRVLAKLVRRALEIHGNPEAEEVLKLIEELLERLKSSSSS
B8: il2ra_site2_2erj_normal_mot_HHH_b2_02303_000000050_0001_43_56_H_._HHH_b2_07923_0001_0000300013_0000001_1 (protein)
chain: SSSSSDDEVAELIIEAVELANNGNPEEARRVLEEAEELARELNNPLLERYVELALEDIRSSSSSS
B9: il2ra_site2_2erj_sap_10_mot_HHH_b1_07741_000000192_0001_1_20_H_._HHH_b2_00205_0001_0000700036_0000001_0_0001 (protein)
chain: SSSSSHEEEVRELLEEAEKAYREGDLHLVFELLSRALHVAAKHQDQELQEEIARFVEELTSSSSS
B10: il2ra_site1_1z92_sap_24_mot_HHH_b2_05734_000000004_0001_1_18_H_._353039fe001517a32f73519ce70da452_0001_af2_0001_0000100005_0000001_0_0001_af2pred_0001_af2pred_1 (protein)
chain: SSSSSLERSLKRAVELAVKEAGLSEEQEKELEELVEELIRRGVDFKEAIKIIDKRALELANSSSS
B11: il2ra_site1_2b5i_sap_9_mot_HHH_b1_05188_af2_000000065_0001_43_56_H_._HHH_b1_04782_af2_0001_0000100004_0000001_0_0001_af2pred_dldesign_0_af2pred (protein)
chain: SSSSSMSAEIRRLILKAEELRKAGKDEEAIKLLEEALKLAKEQNSSLAKIIERNLERLLESSSSS
B12: il2ra_site2_2erj_normal_mot_HHH_b1_06160_000000008_0001_39_56_H_._HHH_b1_01229_0001_0000100002_0000001_0_af2pred_0001_af2pred (protein)
chain: SSSSDEERRALEITLEAVALAHRLRDEETVEEIEELTEEYKEEGDPHYLEIVEELLKELKSSSSS
B13: il2ra_site1_3nfp_sap_20_mot_7e5d6dae1157c95132ff0874b0fd9e6b_0001_1_af2_000000004_0001_1_12_H_._HEEHE_2288_0001_0000200007_0000001_0_0001 (protein)
chain: SLEEALEFLEEAAEERNDKALKWAVRDLEKLVRRGNEEQARRAVEHMLKVTGDPILEEVLKLLRK
B14: il2ra_site2_3nfp_normal_mot_HHH_b2_00232_000000252_0001_23_39_H_._HHH_b2_07199_0001_0000300013_0000001_0 (protein)
chain: SSSSSDEERVKELLEEVEELLRRGNPEEAQRVLREATQIAFEARNEELFALIADVAFLVFHSSSS
B15: il2ra_site2_3nfp_normal_mot_HHH_b2_06150_000000217_0001_39_53_H_._HHH_b1_01649_0001_0000300004_0000001_0 (protein)
chain: SSSSDIEERVEKLLEEAEERRKEGDPEAVEELLAEATHIAFENRNSRLFYLIAEVLFRLASSSSS
B16: il2ra_site2_2erj_normal_mot_HHH_b1_05525_000000147_0001_1_19_H_._HHH_b2_04646_0001_0000500042_0000001_0 (protein)
chain: SSSSSEEEERYEELWEELERAFREGDKELFRELAEELIELAEKLGSEASAEALEEILRRTSSSSS
B17: il2ra_site1_1z92_normal_mot_HHH_b2_00141_000000217_0001_1_20_H_._9e5b67f2fe50fe8120620fffc4d177d6_0001_0001_0000200026_0000001_0_af2pred_0001_af2pred_1 (protein)
chain: SDLEEIAEELERDPRFEEELARLVLKDAGGDPELARQFLKRIAKKAGIPPEVLERLEEIVEELVR
B18: il2ra_site1_2b5i_sap_11_mot_HHH_b1_01080_000000017_0001_1_16_H_._ff14572c0aba3614dea9969ee223935d_0001_1_0001_0000300038_0000001_0_0001_af2pred_dldesign_0_af2pr … (protein)
chain: SSSSSSSETKEEIERLLEEARRVDPARANKLLYEALVLARKNKNEELIKEIEAVFKELSSSSSSS
B19: il2ra_site1_3nfp_normal_mot_119b7766384adbe86006a62bce89dba1_0001_af2_000000052_0001_18_32_H_._HHH_b2_08089_0001_0000100002_0000001_0_af2pred_0001_af2pred (protein)
chain: SSSSDEEERRVEELLKQAKELYERGNPREAVEVIREALKLAAESDDPELYKLVREFLRELASSSS

What follows are binders tested against il2ra, P01589 (assay: yeast display titration).

Apparent Kd, inactive:
B1 no binding seen
B2 no binding seen
B3 no binding seen
B4 no binding seen
B5 no binding seen
B6 no binding seen
B7 > 1.04 µM
B8 no binding seen
B9 no binding seen
B10 no binding seen
B11 no binding seen
B12 no binding seen
B13 no binding seen
B14 no binding seen
B15 no binding seen
B16 no binding seen
B17 no binding seen
B18 no binding seen
B19 no binding seen

2 consecutive records already listed, for reference:
Apparent Kd, inactive:
B9 no binding seen
B10 no binding seen

From paper PMC10163288
